Article PMC4267739, “Functional Characterization of Corynebacterium glutamicum Mycothiol S-Conjugate Amidase” (PLoS ONE, 2014)
These are yes or no findings as the source states them, for the method shown. Sequences can lack the tags named with a protein.

Biological target: Corynebacterium glutamicum mycothiol S-conjugate amidase (Mca), recombinant His6-Mca (Corynebacterium glutamicum) (UniProt Q8NRQ7)
Test: SEC; analytical gel filtration by HPLC on HiLoad 26/600 Superdex 200 GL; 50 mM potassium phosphate buffer pH 7.2, 0.15 M NaCl; calibrated with protein standards of 6.5-158 kDa; both purified

B1: Corynebacterium glutamicum mycothiol S-conjugate amidase (Mca), recombinant His6-Mca (enzyme, UniProt Q8NRQ7 1-291)
chain: MSGLRLMAIHAHPDDESSKGAATMARYAAEGNQVMVVTCTGGERGDILNPAMDKPGILDNIFAVRQEEMAKAMEILGTEHRWLGYEDSGLPQGDPLPPLPEGCFALEDSDKVTQDLVKILREFRPHVIITYDENGGYPHPDHLKVHEVSMLAWEKSGDAAYAPELGAPWEPLKLYYTHGFIRQRMEMFHDLLIEQGKPSPYTPMLERWKANEADVMARVTTQVPCERFFDQRDDALRAHATQIDPAGAFFGTPVEVQRRLWPTEEFELAKTRVKTSIPEDDLFAGITPDAE
**Q.** With B1 as the binder, how does the binding read?
**A.** no binding
